# Results are given in words; binding and its absence hold for the method and conditions named. Binding seen in cells or lysates may run through a third protein. These calls come from enrichment with a bait or labelling near it, and not all partners need be listed.
# Chains of the proteins cited; added tags and fusions are not shown.
# UniProt O00425: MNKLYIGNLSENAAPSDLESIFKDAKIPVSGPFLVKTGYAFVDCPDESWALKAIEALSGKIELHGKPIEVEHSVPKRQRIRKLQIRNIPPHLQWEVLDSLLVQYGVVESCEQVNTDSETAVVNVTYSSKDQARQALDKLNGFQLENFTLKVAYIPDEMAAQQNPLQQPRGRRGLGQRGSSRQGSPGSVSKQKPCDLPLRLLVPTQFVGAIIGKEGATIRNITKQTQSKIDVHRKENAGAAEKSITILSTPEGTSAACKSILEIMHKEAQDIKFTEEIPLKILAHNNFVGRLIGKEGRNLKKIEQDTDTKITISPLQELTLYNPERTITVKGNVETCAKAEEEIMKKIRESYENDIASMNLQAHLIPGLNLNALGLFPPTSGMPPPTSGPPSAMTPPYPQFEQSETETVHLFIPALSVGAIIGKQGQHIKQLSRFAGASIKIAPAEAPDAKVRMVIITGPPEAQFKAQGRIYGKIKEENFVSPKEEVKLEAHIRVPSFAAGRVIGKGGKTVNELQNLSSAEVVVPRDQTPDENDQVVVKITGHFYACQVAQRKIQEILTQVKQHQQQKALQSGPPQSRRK
# UniProt Q9Y4X5: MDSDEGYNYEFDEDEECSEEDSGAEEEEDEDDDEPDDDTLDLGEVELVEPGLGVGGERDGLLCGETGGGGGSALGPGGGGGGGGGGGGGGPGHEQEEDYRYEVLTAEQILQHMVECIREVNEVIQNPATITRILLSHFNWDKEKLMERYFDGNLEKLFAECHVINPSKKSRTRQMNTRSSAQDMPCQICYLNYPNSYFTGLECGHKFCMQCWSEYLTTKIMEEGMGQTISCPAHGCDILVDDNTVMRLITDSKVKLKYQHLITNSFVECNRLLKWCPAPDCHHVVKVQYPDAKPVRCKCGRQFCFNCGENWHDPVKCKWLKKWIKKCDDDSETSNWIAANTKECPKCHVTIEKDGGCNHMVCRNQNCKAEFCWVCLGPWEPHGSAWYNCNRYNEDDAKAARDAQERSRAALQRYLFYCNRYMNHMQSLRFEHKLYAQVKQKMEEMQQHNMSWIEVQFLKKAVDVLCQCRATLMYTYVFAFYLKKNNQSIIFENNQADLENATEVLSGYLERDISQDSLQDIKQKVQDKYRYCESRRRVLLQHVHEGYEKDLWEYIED
# UniProt Q9ULT8: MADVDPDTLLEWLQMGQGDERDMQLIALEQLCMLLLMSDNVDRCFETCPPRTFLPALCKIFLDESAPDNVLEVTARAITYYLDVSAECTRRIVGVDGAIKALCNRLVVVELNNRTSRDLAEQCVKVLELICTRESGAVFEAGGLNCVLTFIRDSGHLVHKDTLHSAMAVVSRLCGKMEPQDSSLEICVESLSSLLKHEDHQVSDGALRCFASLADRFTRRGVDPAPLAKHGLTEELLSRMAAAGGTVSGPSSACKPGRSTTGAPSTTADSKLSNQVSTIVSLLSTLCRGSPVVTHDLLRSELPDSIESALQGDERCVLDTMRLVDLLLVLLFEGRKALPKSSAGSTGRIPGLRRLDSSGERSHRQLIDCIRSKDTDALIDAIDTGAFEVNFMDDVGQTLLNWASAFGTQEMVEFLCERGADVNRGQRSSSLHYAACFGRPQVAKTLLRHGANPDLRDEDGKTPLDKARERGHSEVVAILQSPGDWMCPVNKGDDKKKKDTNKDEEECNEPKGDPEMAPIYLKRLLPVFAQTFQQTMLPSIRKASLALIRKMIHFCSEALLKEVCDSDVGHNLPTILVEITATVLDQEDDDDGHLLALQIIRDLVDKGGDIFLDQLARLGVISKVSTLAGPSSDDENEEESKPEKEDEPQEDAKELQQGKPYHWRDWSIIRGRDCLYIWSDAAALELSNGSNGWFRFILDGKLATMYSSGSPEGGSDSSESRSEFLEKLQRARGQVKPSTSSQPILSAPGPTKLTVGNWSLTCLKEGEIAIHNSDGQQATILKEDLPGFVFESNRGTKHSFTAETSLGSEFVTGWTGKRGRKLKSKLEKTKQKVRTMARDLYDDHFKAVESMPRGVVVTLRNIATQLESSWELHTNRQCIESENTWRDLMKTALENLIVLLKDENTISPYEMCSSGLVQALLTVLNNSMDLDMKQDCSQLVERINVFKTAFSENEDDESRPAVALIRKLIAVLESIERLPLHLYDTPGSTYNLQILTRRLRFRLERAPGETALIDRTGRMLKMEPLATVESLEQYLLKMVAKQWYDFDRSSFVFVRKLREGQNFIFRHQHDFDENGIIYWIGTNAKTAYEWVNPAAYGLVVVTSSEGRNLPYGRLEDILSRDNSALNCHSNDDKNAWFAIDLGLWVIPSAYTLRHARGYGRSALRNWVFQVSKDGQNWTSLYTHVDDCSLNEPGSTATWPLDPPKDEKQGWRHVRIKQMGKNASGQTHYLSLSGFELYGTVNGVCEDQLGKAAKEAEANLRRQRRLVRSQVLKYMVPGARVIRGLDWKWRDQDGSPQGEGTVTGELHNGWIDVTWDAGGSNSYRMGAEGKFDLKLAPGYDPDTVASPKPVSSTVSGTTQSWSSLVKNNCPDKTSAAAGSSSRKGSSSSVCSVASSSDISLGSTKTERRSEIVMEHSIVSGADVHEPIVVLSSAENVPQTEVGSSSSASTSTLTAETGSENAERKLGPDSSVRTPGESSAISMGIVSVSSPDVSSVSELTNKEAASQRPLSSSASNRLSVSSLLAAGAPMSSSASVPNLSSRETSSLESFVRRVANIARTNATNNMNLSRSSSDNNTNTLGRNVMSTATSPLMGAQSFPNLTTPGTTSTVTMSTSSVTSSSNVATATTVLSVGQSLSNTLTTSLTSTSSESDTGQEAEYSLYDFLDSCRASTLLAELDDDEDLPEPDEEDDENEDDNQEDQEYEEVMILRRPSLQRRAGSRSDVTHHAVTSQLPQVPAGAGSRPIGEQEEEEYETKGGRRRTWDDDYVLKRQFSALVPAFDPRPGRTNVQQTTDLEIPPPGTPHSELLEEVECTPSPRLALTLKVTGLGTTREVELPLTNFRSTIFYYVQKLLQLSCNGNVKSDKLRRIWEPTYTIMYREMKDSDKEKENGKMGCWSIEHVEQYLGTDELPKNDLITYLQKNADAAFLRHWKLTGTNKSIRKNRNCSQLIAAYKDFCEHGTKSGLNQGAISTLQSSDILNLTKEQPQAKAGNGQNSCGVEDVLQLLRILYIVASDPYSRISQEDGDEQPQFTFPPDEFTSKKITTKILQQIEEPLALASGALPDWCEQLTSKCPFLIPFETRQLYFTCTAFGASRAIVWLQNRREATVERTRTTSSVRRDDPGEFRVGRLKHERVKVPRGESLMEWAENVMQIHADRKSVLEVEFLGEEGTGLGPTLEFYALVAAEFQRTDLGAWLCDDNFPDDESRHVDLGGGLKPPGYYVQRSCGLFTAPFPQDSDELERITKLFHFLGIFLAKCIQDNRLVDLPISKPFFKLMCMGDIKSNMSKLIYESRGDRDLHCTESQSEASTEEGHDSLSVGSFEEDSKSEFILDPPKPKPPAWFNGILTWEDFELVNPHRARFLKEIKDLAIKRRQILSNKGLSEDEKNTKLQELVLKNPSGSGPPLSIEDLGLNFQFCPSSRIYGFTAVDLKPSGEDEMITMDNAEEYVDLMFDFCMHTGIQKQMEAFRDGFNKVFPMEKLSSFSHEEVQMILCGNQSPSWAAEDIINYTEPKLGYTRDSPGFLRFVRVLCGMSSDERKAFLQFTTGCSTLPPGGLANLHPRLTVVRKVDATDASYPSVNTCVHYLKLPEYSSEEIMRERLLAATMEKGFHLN
# Biological target: GFP-IGF2BP3 (human) (UniProt O00425)
# Assay: affinity purification with mass spectrometry; HeLa cells co-transfected with GFP-IGF2BP3, Flag-Parkin and HA-ubiquitin; lysates immunoprecipitated with GFP-Trap Agarose; LC-MS/MS
row,binding,Substance
1,binds,ARIH1 (from UniProt Q9Y4X5 1-557) (enzyme)
2,binds,HECTD1 (from UniProt Q9ULT8 1-2610) (enzyme)
3,binds,HUWE1 (from UniProt Q7Z6Z7 1-4374) (enzyme)

# From paper PMC10599278
